Reference: PubChem BioAssay AID1259261 (Sanger Institute, 2017)
Screen: 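siRNA screen across the kinome for kinases that are essential and partners synergising with drugs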 (primary screen). Cell system: HCC2998 human colorectal cancer cells. Knock-down reagent: siRNA pool against human genes. Challenge: anchor drugs BYL719 1 µM, cetuximab 5 µg/ml or trametinib 10 nM, each compared with DMSO vehicle. Detection: 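Cell viability relative to non-targeting siRNA, averaged over replicates, with robust z-score for siRNA alone and synergy scores with each anchor drug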. Scale: viability z-score, knock-down alone: higher = more viable cells than controls; viability fraction, knock-down alone: higher = more viable cells. Call rule: 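a knock-down is called essential if its robust z-score without drug is under -3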. Calls: active = essential; inactive = no change.
The whole screen tested 794 reagents; below is an unselected part. In the full data, 10 (1.3%) were called active. 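Calls reflect knock-down alone without drug; synergy scores with BYL719, cetuximab or trametinib do not affect calls.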 Unmarked entries are inactive. No viability above 1 is reported: the scale is capped. Not all columns of the deposit are shown. No sequences are given here. Not stated in the record: the amount of reagent, the time to read-out.

For TTBK2 the deposit lists viability z-score, knock-down alone -1.09; viability fraction, knock-down alone 0.713.
OBSCN scored viability z-score, knock-down alone 0.746; viability fraction, knock-down alone 0.942.
TSSK3 showed viability z-score, knock-down alone -0.0175; viability fraction, knock-down alone 0.847.
IGF1R showed viability z-score, knock-down alone 0.277; viability fraction, knock-down alone 0.884.
NEK9 gave viability z-score, knock-down alone 0.461; viability fraction, knock-down alone 0.907.
For ERBB3 the deposit lists viability z-score, knock-down alone 0.00162; viability fraction, knock-down alone 0.849.
BRWD1 scored viability z-score, knock-down alone 0.376; viability fraction, knock-down alone 0.896.
NEK7 showed viability z-score, knock-down alone 0.762; viability fraction, knock-down alone 0.944.
After knock-down of ALPK3, the screen gave viability z-score, knock-down alone 0.616; viability fraction, knock-down alone 0.926.
Silencing of MAP2K1 gave: viability z-score, knock-down alone -0.109; viability fraction, knock-down alone 0.835.
Knock-down of NME5 resulted in: viability z-score, knock-down alone 1.21; viability fraction, knock-down alone 1.
Knock-down of LATS1 resulted in: viability z-score, knock-down alone 0.214; viability fraction, knock-down alone 0.876.

Only “viability z-score, knock-down alone”, for 2 of the entries above:
NME5 = 1.21
LATS1 = 0.214

The list goes on.
Against MAP3K7 the deposit lists viability z-score, knock-down alone 0.708; viability fraction, knock-down alone 0.938.
Knock-down of ADPGK gave: viability z-score, knock-down alone -0.132; viability fraction, knock-down alone 0.832.
PIP5K1C scored viability z-score, knock-down alone 0.648; viability fraction, knock-down alone 0.93.
After knock-down of ADCK1, the record shows viability z-score, knock-down alone -0.315; viability fraction, knock-down alone 0.809.
After knock-down of CKS2, the record shows viability z-score, knock-down alone 1.13; viability fraction, knock-down alone 0.991.
With knock-down of IP6K3 the results were viability z-score, knock-down alone -0.452; viability fraction, knock-down alone 0.792.
Knock-down of NF1 came out at: viability z-score, knock-down alone 1.21; viability fraction, knock-down alone 1.
Against GNE, the values are viability z-score, knock-down alone 0.0217; viability fraction, knock-down alone 0.852.
CHUK gave viability z-score, knock-down alone -1.61; viability fraction, knock-down alone 0.647.
Against MARK3 the deposit lists viability z-score, knock-down alone -0.301; viability fraction, knock-down alone 0.811.
For GRK5, the entry reads viability z-score, knock-down alone 1.21; viability fraction, knock-down alone 1.
Knock-down of ITPKA came out at: viability z-score, knock-down alone 1.21; viability fraction, knock-down alone 1.
PRKCI gave viability z-score, knock-down alone -0.793; viability fraction, knock-down alone 0.749.
After knock-down of JAK3, the record shows viability z-score, knock-down alone 1.21; viability fraction, knock-down alone 1.
After knock-down of CDK4, the screen gave viability z-score, knock-down alone 0.95; viability fraction, knock-down alone 0.968.
Depletion of CMPK1 resulted in: viability z-score, knock-down alone 0.483; viability fraction, knock-down alone 0.909.
